PubChem BioAssay AID1259330 | Drosophila RNAi Screening Center – 2017
Here is a random part of 95 reagents tested. 6 of them (6.3%) count as active. 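Calls rest on pair 1 alone and pair 2 does not reproduce them; printed active calls all sit near 1.5 or higher.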 A plus sign joins genes that one reagent is predicted to hit. Not stated in the record: the amount of reagent.

- Aim: 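How silencing metal candidate genes changes total ATP without added metal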
- Cells: Drosophila S2R+ cells
- Knock-down reagent: long dsRNA against Drosophila genes
- Time to read-out: 5 days (4 days of knock-down, then 1 day after water)
- Challenge: water added as vehicle control after 4 days, 1 day before read-out; no manganese or zinc
- Detection: 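Total ATP measured by CellTiter-Glo luciferase light, given as z-scores from the mean of duplicate plates; 4 days knock-down, then water for 1 day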
- Reading the numbers: ATP z-score, pair 1 and ATP z-score, pair 2: higher = more total ATP than other wells
- Active means: 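Active means the ATP z-score of replicate pair 1 lies beyond 1.5 in either direction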

{"gene knocked down": "Zip99C (Zinc/iron regulated transporter-related protein 99C)", "dsRNA": "DRSC16320", "ATP z-score, pair 1": -0.22, "ATP z-score, pair 2": -0.224, "call": "inactive"}
{"gene knocked down": "Zip99C (Zinc/iron regulated transporter-related protein 99C)", "dsRNA": "DRSC40024", "ATP z-score, pair 1": -1.3, "ATP z-score, pair 2": 0.172, "call": "inactive"}
{"gene knocked down": "Sod1 (Superoxide dismutase 1)", "dsRNA": "DRSC11286", "ATP z-score, pair 1": -0.0342, "ATP z-score, pair 2": -0.63, "call": "inactive"}
{"gene knocked down": "Sod1 (Superoxide dismutase 1)", "dsRNA": "DRSC40766", "ATP z-score, pair 1": -0.18, "ATP z-score, pair 2": -0.854, "call": "inactive"}
{"gene knocked down": "Alk (Anaplastic lymphoma kinase)", "dsRNA": "DRSC23342", "ATP z-score, pair 1": -1.01, "ATP z-score, pair 2": -0.724, "call": "inactive"}
{"gene knocked down": "Alk (Anaplastic lymphoma kinase)", "dsRNA": "DRSC33404", "ATP z-score, pair 1": -0.481, "ATP z-score, pair 2": 0.784, "call": "inactive"}
{"gene knocked down": "Alk (Anaplastic lymphoma kinase)", "dsRNA": "DRSC36973", "ATP z-score, pair 1": 0.625, "ATP z-score, pair 2": -0.421, "call": "inactive"}
{"gene knocked down": "VhaSFD (Vacuolar H[+]-ATPase SFD subunit)", "dsRNA": "DRSC03471", "ATP z-score, pair 1": -0.388, "ATP z-score, pair 2": 0.176, "call": "inactive"}
{"gene knocked down": "VhaSFD (Vacuolar H[+]-ATPase SFD subunit)", "dsRNA": "DRSC32234", "ATP z-score, pair 1": -0.915, "ATP z-score, pair 2": -0.258, "call": "inactive"}
{"gene knocked down": "VhaSFD (Vacuolar H[+]-ATPase SFD subunit)", "dsRNA": "DRSC32235", "ATP z-score, pair 1": -0.251, "ATP z-score, pair 2": -1.36, "call": "inactive"}
{"gene knocked down": "ATP7", "dsRNA": "DRSC19819", "ATP z-score, pair 1": -0.00457, "ATP z-score, pair 2": -0.244, "call": "inactive"}
{"gene knocked down": "ATP7", "dsRNA": "DRSC39460", "ATP z-score, pair 1": 0.783, "ATP z-score, pair 2": -0.449, "call": "inactive"}
{"gene knocked down": "p38c (p38c MAP kinase)", "dsRNA": "DRSC22939", "ATP z-score, pair 1": 0.779, "ATP z-score, pair 2": -0.767, "call": "inactive"}
{"gene knocked down": "p38c (p38c MAP kinase)", "dsRNA": "DRSC37357", "ATP z-score, pair 1": 0.00437, "ATP z-score, pair 2": 0.331, "call": "inactive"}
{"gene knocked down": "Nhe2 (Na[+]/H[+] hydrogen exchanger 2)", "dsRNA": "DRSC03172", "ATP z-score, pair 1": -0.991, "ATP z-score, pair 2": 0.0402, "call": "inactive"}
{"gene knocked down": "Nhe2 (Na[+]/H[+] hydrogen exchanger 2)", "dsRNA": "DRSC03377", "ATP z-score, pair 1": -0.22, "ATP z-score, pair 2": 0.215, "call": "inactive"}
{"gene knocked down": "rl (rolled)", "dsRNA": "DRSC31395", "ATP z-score, pair 1": -1.22, "ATP z-score, pair 2": -1.2, "call": "inactive"}
{"gene knocked down": "rl (rolled)", "dsRNA": "DRSC31396", "ATP z-score, pair 1": 0.784, "ATP z-score, pair 2": 0.904, "call": "inactive"}
{"gene knocked down": "stw (straw)", "dsRNA": "DRSC04842", "ATP z-score, pair 1": -0.253, "ATP z-score, pair 2": -0.202, "call": "inactive"}
{"gene knocked down": "stw (straw)", "dsRNA": "DRSC04843", "ATP z-score, pair 1": -0.614, "ATP z-score, pair 2": 0.0017, "call": "inactive"}
{"gene knocked down": "MtnA (Metallothionein A)", "dsRNA": "DRSC21588", "ATP z-score, pair 1": -0.927, "ATP z-score, pair 2": 0.761, "call": "inactive"}

Reformatted: results already given
Zip99C (Zinc/iron regulated transporter-related protein 99C) [DRSC40024] — ATP z-score, pair 1 = -1.3; ATP z-score, pair 2 = 0.172; call = inactive
Sod1 (Superoxide dismutase 1) [DRSC11286] — ATP z-score, pair 1 = -0.0342; ATP z-score, pair 2 = -0.63; call = inactive
Sod1 (Superoxide dismutase 1) [DRSC40766] — ATP z-score, pair 1 = -0.18; ATP z-score, pair 2 = -0.854; call = inactive
Alk (Anaplastic lymphoma kinase) [DRSC23342] — ATP z-score, pair 1 = -1.01; ATP z-score, pair 2 = -0.724; call = inactive
Alk (Anaplastic lymphoma kinase) [DRSC33404] — ATP z-score, pair 1 = -0.481; ATP z-score, pair 2 = 0.784; call = inactive

The list goes on.
{"gene knocked down": "Orct (Organic cation transporter)", "dsRNA": "DRSC16777", "ATP z-score, pair 1": 1.35, "ATP z-score, pair 2": 1.86, "call": "inactive"}
{"gene knocked down": "Orct (Organic cation transporter)", "dsRNA": "DRSC25574", "ATP z-score, pair 1": -0.127, "ATP z-score, pair 2": -0.1, "call": "inactive"}
{"gene knocked down": "mTor (mechanistic Target of rapamycin)", "dsRNA": "DRSC02811", "ATP z-score, pair 1": 3.06, "ATP z-score, pair 2": 2.59, "call": "active"}
{"gene knocked down": "mTor (mechanistic Target of rapamycin)", "dsRNA": "DRSC40810", "ATP z-score, pair 1": 2.66, "ATP z-score, pair 2": 1.73, "call": "active"}
{"gene knocked down": "CG7536", "dsRNA": "DRSC20050", "ATP z-score, pair 1": 0.209, "ATP z-score, pair 2": -0.265, "call": "inactive"}
{"gene knocked down": "CG7536", "dsRNA": "DRSC39596", "ATP z-score, pair 1": -0.141, "ATP z-score, pair 2": -0.731, "call": "inactive"}
{"gene knocked down": "Vha68-2 (Vacuolar H[+] ATPase 68 kDa subunit 2)", "dsRNA": "DRSC28637", "ATP z-score, pair 1": -0.411, "ATP z-score, pair 2": -0.0198, "call": "inactive"}
{"gene knocked down": "Vha68-2 (Vacuolar H[+] ATPase 68 kDa subunit 2)", "dsRNA": "DRSC31692", "ATP z-score, pair 1": -0.714, "ATP z-score, pair 2": -0.0239, "call": "inactive"}
{"gene knocked down": "CG42674", "dsRNA": "DRSC29701", "ATP z-score, pair 1": 0.258, "ATP z-score, pair 2": 1.34, "call": "inactive"}
{"gene knocked down": "CG42674", "dsRNA": "DRSC35487", "ATP z-score, pair 1": -0.829, "ATP z-score, pair 2": -0.72, "call": "inactive"}
{"gene knocked down": "CG16890 + p38b", "dsRNA": "DRSC36755", "ATP z-score, pair 1": 1.5, "ATP z-score, pair 2": -0.378, "call": "inactive"}
{"gene knocked down": "CG6006", "dsRNA": "DRSC13137", "ATP z-score, pair 1": 0.863, "ATP z-score, pair 2": -0.186, "call": "inactive"}
{"gene knocked down": "CG6006", "dsRNA": "DRSC15946", "ATP z-score, pair 1": -0.321, "ATP z-score, pair 2": -0.817, "call": "inactive"}
{"gene knocked down": "MFS10 (Major Facilitator Superfamily Transporter 10)", "dsRNA": "DRSC26960", "ATP z-score, pair 1": -0.452, "ATP z-score, pair 2": 0.561, "call": "inactive"}
{"gene knocked down": "MFS10 (Major Facilitator Superfamily Transporter 10)", "dsRNA": "DRSC36116", "ATP z-score, pair 1": -0.485, "ATP z-score, pair 2": -0.367, "call": "inactive"}
{"gene knocked down": "Vha36-1 (Vacuolar H[+] ATPase 36kD subunit 1)", "dsRNA": "DRSC07098", "ATP z-score, pair 1": 1.31, "ATP z-score, pair 2": 1.22, "call": "inactive"}
{"gene knocked down": "Vha36-1 (Vacuolar H[+] ATPase 36kD subunit 1)", "dsRNA": "DRSC25624", "ATP z-score, pair 1": 0.282, "ATP z-score, pair 2": 0.331, "call": "inactive"}
{"gene knocked down": "Syx5 (Syntaxin 5)", "dsRNA": "DRSC03432", "ATP z-score, pair 1": 2.15, "ATP z-score, pair 2": 1.24, "call": "active"}
{"gene knocked down": "Syx5 (Syntaxin 5)", "dsRNA": "DRSC40872", "ATP z-score, pair 1": 2.63, "ATP z-score, pair 2": 1.12, "call": "active"}
